From US10189878B2 (priority 2014, dated 2019)
Read-outs that look alike come from different tables or passages of the source.

How the values were obtained:
[1] = system: ebolavirus GP pseudovirions; format: cell-based, Zaire ebolavirus
[2] = system: marburgvirus GP pseudovirions; format: cell-based, Marburg Musoke
[3] = system: Ebola virus (Kikwit); format: cell-based, Zaire ebolavirus
[4] = system: Marburg virus (Ci67); format: cell-based
[5] = format: physicochemical; details: pH 5.8
[6] = format: physicochemical; details: pH 5.8; remark: listed apart in the source
[7] = system: vesicular stomatitis virus glycoprotein pseudotype (VSV); format: cell-based
[8] = read-out: IC50 against ebolavirus pseudotype
[9] = read-out: IC50 against marburgvirus pseudotype

| Sequence | IC50 [1, 8] | IC50 ([1]; read-out: average IC50 against ebolavirus GP pseudovirus) | anti-marburgvirus activity better than eboIZN39IQ(D3) [2] | IC50 [2, 9] | IC50 ([2]; read-out: IC50 against marburgvirus pseudovirus) | infected cells compared to vehicle control [3] | inhibition of entry of wild-type ebolavirus ([3]; 10 µM) | activity against wild-type marburgvirus [4] | [θ222 nm] 25° C. [5] | [θ222 nm] 37° C. [5] | [θ222 nm] 50° C. [5] | Mobs/Mcalc 4° C. [6] | anti-ebolavirus activity diminished relative to eboIZN39IQ [1] | IC50 ([1]; read-out: IC50 against ebolavirus GP pseudovirus) | activity against VSV glycoprotein pseudotype [7] | inhibition of wild-type ebolavirus entry (in words) [3] |
| --- | --- | --- | --- | --- | --- | --- | --- | --- | --- | --- | --- | --- | --- | --- | --- | --- |
| GHMDIKKEIEAIKKEQEAIKKKIEAIEKELRQLANETTQALQLFLRATTELRTFSILNRKAIDFLLQRMKQIEDKIEEIESKQKKIENEIARIKKLIGERY [eboIZN39IQ] | 0.26 µM | 0.32 µM | ~2 fold | 5.4 µM | 5.7 µM | 33% | 67% | no activity | −29,400 deg cm^2 dmol^−1 | −27,900 deg cm^2 dmol^−1 | −27,100 deg cm^2 dmol^−1 | 3.24 | – | – | – | – |
| GHMDIKKEIEAIKKEQEAIKKKIEAIEKELRQLANETTQDLQLFLRDTTELRTFSILNRKDIDFLLQRMKQIEDKIEEIESKQKKIENEIARIKKLIGERY [eboIZN39IQ(D3)] | 8.9 µM | – | – | 11 µM | – | – | – | – | – | – | – | – | ~30 fold | 11 µM | not seen | no inhibition |
